Data taken from the supplement of paper PMC10849652.
The other results are listed elsewhere or left out.

The chains behind the UniProt entries cited, without tags or fusion partners. Where a name states a change or a piece, a line headed by the entry shows the natural chain unless it says otherwise.
UniProt Q15042: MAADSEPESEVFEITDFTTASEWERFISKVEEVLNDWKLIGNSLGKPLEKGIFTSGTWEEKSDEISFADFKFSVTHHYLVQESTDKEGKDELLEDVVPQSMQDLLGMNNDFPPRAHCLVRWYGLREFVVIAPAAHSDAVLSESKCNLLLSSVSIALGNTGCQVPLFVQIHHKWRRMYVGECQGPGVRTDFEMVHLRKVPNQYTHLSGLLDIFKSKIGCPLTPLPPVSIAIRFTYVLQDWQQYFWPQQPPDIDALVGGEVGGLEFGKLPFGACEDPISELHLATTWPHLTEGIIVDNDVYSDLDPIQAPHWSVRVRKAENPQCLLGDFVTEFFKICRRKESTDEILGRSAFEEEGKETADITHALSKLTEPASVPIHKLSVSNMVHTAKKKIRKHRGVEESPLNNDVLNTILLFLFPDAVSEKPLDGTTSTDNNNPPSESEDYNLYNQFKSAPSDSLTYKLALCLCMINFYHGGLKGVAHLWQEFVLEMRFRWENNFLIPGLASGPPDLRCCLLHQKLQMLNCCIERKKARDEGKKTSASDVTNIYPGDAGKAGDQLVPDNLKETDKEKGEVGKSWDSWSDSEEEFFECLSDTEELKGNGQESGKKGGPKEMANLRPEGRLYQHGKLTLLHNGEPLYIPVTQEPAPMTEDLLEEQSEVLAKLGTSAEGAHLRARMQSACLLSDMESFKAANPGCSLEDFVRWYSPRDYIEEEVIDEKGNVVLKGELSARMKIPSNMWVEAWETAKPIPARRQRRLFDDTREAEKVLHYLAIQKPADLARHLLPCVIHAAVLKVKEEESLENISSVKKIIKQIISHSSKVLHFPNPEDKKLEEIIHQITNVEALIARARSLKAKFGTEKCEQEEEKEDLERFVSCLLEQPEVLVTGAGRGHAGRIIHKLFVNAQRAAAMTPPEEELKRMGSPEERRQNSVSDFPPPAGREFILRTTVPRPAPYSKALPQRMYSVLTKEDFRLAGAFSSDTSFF
UniProt P46060: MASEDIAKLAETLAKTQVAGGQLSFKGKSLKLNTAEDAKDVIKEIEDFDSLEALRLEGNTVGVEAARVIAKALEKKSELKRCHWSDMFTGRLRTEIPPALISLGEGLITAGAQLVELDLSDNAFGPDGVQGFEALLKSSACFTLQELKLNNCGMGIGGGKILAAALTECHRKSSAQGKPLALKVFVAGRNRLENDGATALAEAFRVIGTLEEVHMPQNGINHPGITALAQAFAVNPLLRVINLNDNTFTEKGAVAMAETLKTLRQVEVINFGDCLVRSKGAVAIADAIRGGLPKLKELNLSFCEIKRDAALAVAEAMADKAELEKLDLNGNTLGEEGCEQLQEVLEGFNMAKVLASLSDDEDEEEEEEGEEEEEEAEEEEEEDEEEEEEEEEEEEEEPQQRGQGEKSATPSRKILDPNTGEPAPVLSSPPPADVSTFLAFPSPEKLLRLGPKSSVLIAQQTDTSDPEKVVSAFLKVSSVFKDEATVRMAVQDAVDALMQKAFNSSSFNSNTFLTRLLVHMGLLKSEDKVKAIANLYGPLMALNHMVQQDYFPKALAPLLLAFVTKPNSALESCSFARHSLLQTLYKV
UniProt Q6WKZ4: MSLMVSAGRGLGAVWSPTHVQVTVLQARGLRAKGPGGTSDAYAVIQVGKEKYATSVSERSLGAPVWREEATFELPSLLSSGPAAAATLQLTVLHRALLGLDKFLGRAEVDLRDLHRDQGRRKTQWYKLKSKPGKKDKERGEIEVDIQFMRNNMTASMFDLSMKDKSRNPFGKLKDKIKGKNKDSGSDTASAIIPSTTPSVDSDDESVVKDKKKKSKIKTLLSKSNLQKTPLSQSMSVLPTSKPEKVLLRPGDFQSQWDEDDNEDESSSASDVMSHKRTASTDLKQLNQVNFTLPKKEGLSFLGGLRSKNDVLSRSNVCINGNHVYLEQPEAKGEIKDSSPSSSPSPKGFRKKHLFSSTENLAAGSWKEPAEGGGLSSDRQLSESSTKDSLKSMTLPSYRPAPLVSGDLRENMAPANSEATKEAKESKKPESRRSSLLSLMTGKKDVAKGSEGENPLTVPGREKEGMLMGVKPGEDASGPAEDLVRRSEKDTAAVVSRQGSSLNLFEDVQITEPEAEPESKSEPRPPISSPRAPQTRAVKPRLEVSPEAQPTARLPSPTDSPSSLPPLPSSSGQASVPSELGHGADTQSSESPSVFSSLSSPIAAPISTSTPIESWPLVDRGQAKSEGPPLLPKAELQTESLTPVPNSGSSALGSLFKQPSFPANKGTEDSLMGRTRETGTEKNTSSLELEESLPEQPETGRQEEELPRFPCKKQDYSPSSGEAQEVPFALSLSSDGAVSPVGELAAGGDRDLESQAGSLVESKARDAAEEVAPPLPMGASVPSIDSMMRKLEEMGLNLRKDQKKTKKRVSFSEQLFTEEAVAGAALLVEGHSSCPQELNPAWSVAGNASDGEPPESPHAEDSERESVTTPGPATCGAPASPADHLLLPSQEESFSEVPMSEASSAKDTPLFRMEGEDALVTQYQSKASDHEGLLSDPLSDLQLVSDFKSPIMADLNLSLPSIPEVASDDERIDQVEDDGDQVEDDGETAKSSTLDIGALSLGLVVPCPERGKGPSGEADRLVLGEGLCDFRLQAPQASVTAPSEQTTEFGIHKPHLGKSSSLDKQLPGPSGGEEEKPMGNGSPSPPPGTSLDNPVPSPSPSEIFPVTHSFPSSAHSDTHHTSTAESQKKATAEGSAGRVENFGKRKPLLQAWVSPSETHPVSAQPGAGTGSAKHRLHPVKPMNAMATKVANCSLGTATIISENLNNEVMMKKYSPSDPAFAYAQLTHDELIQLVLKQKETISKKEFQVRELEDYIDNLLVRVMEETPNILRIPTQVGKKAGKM
UniProt Q9NW64: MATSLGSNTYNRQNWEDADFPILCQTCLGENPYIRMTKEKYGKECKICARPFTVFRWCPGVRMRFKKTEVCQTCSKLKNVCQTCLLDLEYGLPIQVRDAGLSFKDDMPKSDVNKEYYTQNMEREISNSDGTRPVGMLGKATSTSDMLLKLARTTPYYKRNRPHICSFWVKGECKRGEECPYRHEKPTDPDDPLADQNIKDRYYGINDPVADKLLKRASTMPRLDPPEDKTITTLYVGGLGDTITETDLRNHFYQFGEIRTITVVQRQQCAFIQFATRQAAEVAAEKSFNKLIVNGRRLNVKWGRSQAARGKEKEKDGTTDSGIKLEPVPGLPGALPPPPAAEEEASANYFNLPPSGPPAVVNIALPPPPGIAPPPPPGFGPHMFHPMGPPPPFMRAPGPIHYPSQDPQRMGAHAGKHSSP
UniProt Q9UKM9: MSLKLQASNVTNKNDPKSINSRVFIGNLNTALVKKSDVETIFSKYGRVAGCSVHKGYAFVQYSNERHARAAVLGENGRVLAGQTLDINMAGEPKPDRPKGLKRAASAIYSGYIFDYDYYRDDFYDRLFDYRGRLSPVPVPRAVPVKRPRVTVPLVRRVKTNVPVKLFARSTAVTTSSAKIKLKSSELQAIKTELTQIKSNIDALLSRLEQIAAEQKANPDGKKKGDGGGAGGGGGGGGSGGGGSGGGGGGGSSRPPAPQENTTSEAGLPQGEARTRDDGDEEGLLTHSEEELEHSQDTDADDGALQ
UniProt Q15283: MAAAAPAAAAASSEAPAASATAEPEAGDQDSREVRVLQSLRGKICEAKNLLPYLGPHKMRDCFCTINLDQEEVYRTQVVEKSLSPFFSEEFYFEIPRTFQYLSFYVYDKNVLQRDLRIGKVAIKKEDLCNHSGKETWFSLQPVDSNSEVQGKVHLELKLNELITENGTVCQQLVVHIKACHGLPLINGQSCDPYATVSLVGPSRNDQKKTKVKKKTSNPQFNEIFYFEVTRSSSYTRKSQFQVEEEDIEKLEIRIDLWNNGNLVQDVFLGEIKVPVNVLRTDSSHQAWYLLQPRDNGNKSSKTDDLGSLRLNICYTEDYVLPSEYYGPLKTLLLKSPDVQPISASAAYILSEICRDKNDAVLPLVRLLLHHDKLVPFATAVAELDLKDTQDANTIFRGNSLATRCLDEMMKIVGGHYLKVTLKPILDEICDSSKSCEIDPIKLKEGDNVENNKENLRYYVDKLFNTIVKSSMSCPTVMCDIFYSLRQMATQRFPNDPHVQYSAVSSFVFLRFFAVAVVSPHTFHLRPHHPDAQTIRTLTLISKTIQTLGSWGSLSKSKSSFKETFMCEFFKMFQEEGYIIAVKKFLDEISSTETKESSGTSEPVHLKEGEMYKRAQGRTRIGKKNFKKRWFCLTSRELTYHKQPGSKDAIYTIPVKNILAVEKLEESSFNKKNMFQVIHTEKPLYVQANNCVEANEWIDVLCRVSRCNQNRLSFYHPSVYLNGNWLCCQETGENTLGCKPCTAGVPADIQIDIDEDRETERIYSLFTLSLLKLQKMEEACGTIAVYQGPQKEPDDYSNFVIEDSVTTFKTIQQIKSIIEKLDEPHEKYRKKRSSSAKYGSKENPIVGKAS
UniProt Q06609, whole entry, looked up: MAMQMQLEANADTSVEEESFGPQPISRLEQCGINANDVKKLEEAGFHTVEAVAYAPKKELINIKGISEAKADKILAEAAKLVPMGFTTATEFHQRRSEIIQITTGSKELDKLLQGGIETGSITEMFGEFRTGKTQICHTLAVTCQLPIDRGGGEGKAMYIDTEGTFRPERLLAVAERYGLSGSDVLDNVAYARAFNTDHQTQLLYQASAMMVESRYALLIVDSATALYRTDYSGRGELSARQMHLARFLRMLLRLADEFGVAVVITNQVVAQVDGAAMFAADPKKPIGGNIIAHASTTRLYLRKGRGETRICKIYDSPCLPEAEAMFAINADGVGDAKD
UniProt P62834: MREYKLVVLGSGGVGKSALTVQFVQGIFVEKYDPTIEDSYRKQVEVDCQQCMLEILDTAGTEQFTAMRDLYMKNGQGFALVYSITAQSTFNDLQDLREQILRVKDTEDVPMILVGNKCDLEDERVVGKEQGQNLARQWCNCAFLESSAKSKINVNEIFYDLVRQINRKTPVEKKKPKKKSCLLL
UniProt Q13636: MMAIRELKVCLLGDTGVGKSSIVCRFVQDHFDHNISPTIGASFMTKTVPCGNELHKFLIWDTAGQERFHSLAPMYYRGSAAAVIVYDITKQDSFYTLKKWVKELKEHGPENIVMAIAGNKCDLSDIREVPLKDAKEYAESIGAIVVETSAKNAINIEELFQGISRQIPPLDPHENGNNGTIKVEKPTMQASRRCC
UniProt Q99638: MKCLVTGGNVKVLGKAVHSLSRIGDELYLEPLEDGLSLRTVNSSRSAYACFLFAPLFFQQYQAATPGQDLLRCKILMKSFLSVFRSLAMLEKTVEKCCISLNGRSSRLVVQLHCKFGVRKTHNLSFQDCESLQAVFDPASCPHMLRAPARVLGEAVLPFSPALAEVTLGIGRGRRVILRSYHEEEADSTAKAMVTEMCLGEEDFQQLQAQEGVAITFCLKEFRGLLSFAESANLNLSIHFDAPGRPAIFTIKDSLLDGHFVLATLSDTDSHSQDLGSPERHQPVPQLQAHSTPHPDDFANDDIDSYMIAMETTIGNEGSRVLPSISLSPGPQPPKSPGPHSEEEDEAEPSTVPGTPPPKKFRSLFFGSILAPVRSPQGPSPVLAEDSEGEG
UniProt Q96B01: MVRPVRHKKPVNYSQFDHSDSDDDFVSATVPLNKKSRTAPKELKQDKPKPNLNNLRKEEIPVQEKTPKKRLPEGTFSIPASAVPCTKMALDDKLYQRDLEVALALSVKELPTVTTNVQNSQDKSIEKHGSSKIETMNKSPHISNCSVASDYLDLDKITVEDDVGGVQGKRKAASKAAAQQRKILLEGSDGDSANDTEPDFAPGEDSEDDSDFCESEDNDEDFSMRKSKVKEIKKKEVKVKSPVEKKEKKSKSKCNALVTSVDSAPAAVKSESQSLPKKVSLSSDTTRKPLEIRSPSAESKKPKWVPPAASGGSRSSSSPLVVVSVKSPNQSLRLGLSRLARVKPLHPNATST
UniProt Q9H0H5: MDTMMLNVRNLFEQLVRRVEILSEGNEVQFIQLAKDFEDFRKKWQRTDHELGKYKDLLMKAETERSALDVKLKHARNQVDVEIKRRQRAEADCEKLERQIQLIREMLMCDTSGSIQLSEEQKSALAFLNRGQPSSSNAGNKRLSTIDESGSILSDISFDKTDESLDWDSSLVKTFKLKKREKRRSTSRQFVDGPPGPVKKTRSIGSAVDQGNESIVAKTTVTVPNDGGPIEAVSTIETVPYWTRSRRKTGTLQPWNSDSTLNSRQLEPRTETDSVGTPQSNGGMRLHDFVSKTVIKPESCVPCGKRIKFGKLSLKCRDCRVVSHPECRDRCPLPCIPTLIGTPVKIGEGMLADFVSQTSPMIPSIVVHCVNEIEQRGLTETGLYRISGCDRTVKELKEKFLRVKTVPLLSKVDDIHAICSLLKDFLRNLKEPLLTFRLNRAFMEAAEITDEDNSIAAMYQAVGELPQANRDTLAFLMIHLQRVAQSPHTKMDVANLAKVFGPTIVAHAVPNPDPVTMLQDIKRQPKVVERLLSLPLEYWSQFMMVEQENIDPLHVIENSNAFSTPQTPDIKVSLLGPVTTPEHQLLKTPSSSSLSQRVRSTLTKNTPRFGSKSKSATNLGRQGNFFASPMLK

Compound: Cc1ccc(NC(=O)c2ccc(CN3CC[C@H](N(C)C)C3)c(C(F)(F)F)c2)cc1Nc1nccc(-c2cncnc2)n1 [bafetinib]
Assay: log2 fold change, soluble protein after heating vs DMSO (PISA); higher = thermal stabilisation; K562 cells, 10 uM, 30 min; active = over 0.2 and 3.5 SD of the protein, either way, in both replicates (recomputed)
Procedure, shortened: (§1)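 K562 cells at 2×10^6 cells/mL were treated for 30 min with 10 μM compound, and aliquots were heated for 3 min over 48°C-58°C before pooling. Extraction used PBS with 0.5% NP-40 at 4°C, and soluble protein was the supernatant after 21,000xg for 90 min, measured by TMTpro 16plex LC-MS/MS with channel sums equalised. Thermal stability values, relative to control samples and from duplicates, are log2 fold changes.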

log2 fold change, inactive:
RAB6D (UniProt Q53S08) -0.025
RAN (UniProt P62826) -0.034
RAB3GAP1 (UniProt Q15042) 0.026
RAPGEF2, A0A2R8YGD3 -0.072
RALA (UniProt P11233) -0.026
RANGAP1 (UniProt P46060) 0
RAB8A isoform 2 (UniProt P61006) -0.025
RAC1 (UniProt P63000) 0.184

Compound: Cc1cccc(CC(=O)N2CCc3c2ccc(-c2cn(C)c4ncnc(N)c24)c3F)n1
Assay: as above
Procedure, shortened: as §1

log2 fold change, inactive:
RAB11FIP1 (UniProt Q6WKZ4) 0.12
RAB8B (UniProt Q92930) 0.085
RBM22 (UniProt Q9NW64) 0
RALY (UniProt Q9UKM9) -0.069
RASA2 (UniProt Q15283) 0.059
RAB11A (UniProt P62491) -0.212
RALBP1 (UniProt Q15311) -0.052
RANBP2 (UniProt P49792) 0.197
RBM27 (UniProt Q9P2N5) 0.078
RB1CC1 (UniProt Q8TDY2) 0.014
RACK1 (UniProt D6RF23) -0.054
RAD51 (UniProt Q06609) 0.021
RAP1A (UniProt P62834) -0.065
RASSF5 (UniProt Q8WWW0) 0.017
RAPGEF6 isoform 4 (UniProt Q8TEU7) -0.225
RAB31 (UniProt Q13636) -0.042
RAD9A (UniProt Q99638) -0.076
RAD51AP1 (UniProt Q96B01) -0.004
RB1 (UniProt P06400) 0.01
RANBP10 (UniProt Q6VN20) -0.062
RACGAP1 (UniProt Q9H0H5) 0.001
RAB6D (UniProt Q53S08) -0.084
RAN (UniProt P62826) -0.025
RAB3GAP1 (UniProt Q15042) -0.051
RAPGEF2, A0A2R8YGD3 -0.039
RALA (UniProt P11233) 0.178
RANGAP1 (UniProt P46060) 0.032
RAB8A isoform 2 (UniProt P61006) -0.039
RAC1 (UniProt P63000) -0.017
